According to patent US20030087315A1 (MCP HAHNEMANN UNIVERSITY, published 2003):
No constants are given. Whether binding was seen depends on the method and setting. Some results given as binding are weak or reduced against the parent protein; the word gives no strength. No end group written: not given here. *: point of attachment. Biotin = O=C1N[C@H]2[C@H](CS[C@H]2CCCCC(=O)*)N1

Sequences of proteins named here, by UniProt entry; tags and fusion partners are left off. A change or cut given only in a name is not applied to a line headed by its entry. Residues count along the entry.
UniProt P11087, residues 168-1181: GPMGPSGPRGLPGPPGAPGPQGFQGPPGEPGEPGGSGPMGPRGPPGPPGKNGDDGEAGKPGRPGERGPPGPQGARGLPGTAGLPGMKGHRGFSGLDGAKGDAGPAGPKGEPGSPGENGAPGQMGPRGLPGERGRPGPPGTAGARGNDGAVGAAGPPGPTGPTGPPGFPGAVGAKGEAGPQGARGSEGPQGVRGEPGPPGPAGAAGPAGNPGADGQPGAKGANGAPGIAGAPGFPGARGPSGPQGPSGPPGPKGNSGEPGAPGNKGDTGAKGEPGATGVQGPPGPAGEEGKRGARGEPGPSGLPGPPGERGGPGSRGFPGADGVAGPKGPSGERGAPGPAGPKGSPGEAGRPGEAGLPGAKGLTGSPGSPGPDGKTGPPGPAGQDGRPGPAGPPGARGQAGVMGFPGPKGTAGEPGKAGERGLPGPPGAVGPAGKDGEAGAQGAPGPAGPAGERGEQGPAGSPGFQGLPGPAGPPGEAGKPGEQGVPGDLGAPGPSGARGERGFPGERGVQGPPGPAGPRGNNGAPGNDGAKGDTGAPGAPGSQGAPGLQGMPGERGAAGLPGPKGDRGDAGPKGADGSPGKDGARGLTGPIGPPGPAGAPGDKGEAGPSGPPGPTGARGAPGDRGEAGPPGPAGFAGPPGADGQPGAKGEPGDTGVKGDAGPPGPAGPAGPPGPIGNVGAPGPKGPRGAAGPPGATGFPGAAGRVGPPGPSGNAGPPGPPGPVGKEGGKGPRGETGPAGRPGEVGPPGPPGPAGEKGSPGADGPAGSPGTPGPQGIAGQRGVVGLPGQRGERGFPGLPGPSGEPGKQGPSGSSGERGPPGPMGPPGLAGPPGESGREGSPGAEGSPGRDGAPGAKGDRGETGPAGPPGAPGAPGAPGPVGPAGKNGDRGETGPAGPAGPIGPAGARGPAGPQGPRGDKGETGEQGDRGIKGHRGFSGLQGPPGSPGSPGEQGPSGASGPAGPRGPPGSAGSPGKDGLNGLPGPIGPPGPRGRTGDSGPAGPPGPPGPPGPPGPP
UniProt P08123: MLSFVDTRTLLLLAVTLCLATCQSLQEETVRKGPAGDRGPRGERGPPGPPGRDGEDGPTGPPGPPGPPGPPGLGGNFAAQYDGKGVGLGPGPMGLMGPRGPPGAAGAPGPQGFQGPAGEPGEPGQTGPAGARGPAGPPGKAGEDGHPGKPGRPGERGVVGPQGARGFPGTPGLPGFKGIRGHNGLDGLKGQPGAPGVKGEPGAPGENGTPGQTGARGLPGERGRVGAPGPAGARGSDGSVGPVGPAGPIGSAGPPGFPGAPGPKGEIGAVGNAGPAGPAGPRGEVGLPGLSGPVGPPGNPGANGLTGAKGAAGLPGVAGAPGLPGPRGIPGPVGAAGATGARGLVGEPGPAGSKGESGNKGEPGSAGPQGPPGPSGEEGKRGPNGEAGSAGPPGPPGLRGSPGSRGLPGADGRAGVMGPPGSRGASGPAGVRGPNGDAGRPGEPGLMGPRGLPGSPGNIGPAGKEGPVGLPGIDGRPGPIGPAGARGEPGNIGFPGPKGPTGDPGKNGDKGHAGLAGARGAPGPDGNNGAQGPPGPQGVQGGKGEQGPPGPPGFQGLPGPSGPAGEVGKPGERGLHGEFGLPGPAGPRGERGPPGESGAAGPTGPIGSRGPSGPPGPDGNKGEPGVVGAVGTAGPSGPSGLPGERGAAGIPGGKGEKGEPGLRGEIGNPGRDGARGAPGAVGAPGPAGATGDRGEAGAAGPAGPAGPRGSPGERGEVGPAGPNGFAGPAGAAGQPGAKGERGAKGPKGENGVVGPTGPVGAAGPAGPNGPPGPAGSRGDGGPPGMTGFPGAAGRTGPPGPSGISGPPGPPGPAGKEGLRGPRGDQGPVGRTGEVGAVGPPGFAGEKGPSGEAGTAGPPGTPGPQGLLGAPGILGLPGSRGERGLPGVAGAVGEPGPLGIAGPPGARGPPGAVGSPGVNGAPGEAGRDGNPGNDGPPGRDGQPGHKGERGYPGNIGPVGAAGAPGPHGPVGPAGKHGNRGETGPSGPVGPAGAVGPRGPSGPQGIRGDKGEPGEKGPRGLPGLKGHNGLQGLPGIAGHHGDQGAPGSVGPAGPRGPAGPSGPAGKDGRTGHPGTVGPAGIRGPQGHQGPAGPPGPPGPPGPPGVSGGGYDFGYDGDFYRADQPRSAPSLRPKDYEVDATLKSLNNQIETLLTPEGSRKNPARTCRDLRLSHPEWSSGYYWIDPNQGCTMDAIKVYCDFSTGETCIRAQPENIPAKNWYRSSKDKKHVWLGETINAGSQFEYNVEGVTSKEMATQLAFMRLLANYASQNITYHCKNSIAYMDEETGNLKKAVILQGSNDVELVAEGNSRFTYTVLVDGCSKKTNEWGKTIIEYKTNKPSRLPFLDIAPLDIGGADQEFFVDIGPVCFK

Legend:
[1] = target: T1, α1(I) chain of type I collagen (mouse, UniProt P11087 168-1181, limits assumed); test: electroblot assay, FIG. 5D
T1 construct: Denatured chain on a nitrocellulose filter; pepsin-treated collagen; also called α1 chain

[2] = target: T1, α1(I) chain of type I collagen; test: filter binding assay, electroblotted chains

binding [1]: binds | binding [2]: binds
B1: biotinylated N-telopeptide of α2 chain of human type I collagen (peptide, UniProt P08123 80-90, looked up)
peptide: Biotin-QYDGKGVGLGP
notes: domain: N-telopeptide; also called biotinylated α2 N-telopeptide
